Cell number after 72 h of treatment

Values as published with doi:10.1371/journal.pone.0140310, rounded.

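Human melanoma cells were exposed to two drugs together for 72 h in 1,536-well plates and read by automated microscopy after fixing and staining. The read-out is cell count (nuclei) in % of the DMSO control; lower values mean stronger growth inhibition or killing. Concentrations were fixed for each drug; these are the lower of two levels, a fifth of the higher. The file gives one value for each pair and line, without errors, so small differences may be noise.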
An unselected part of the screen is shown.
An entry leaves out what has no value listed here.

Drugs:
GSK0660 (1 µM): COC(=O)c1sccc1S(=O)(=O)Nc1ccc(Nc2ccccc2)cc1OC
GW9662 (2 µM): O=C(Nc1ccccc1)c1cc([N+](=O)[O-])ccc1Cl
A-769662 (2 µM): N#Cc1c(O)c2c(-c3ccc(-c4ccccc4O)cc3)csc2[nH]c1=O
SNS-314 (0.0008 µM): O=C(Nc1cccc(Cl)c1)Nc1ncc(CCNc2ncnc3ccsc23)s1
ENMD-2076 (0.04 µM): Cc1cc(Nc2cc(N3CCN(C)CC3)nc(/C=C/c3ccccc3)n2)n[nH]1
midostaurin (0.08 µM): CO[C@@H]1[C@H](N(C)C(=O)c2ccccc2)C[C@H]2O[C@]1(C)n1c3ccccc3c3c4c(c5c6ccccc6n2c5c31)C(=O)NC4
AZD7762 (0.02 µM): NC(=O)Nc1cc(-c2cccc(F)c2)sc1C(=O)N[C@H]1CCCNC1
etoposide (0.02 µM): COc1cc([C@@H]2c3cc4c(cc3[C@@H](O[C@@H]3O[C@@H]5CO[C@@H](C)O[C@H]5[C@H](O)[C@H]3O)[C@H]3COC(=O)[C@H]23)OCO4)cc(OC)c1O
nutlin-3 (0.1 µM): COc1ccc(C2=N[C@@H](c3ccc(Cl)cc3)[C@@H](c3ccc(Cl)cc3)N2C(=O)N2CCNC(=O)C2)c(OC(C)C)c1
embelin (1.2 µM): CCCCCCCCCCCC1=C(O)C(=O)C=C(O)C1=O

- ENMD-2076 + AZD7762 : COLO 800: 75.6; COLO 829: 93.2; A101D: 95.6; A375: 77.0; C32: 93.6
- etoposide + embelin : COLO 800: 99.9; COLO 829: 98.5; A101D: 93.9; C32: 88.7; 501mel: 95.5
- GW9662 + embelin : COLO 800: 162; COLO 829: 97.7; A101D: 108; A375: 119; C32: 94.7; 501mel: 99.2
- GSK0660 + GW9662 : COLO 800: 118; COLO 829: 82.3; A101D: 112; A375: 106; C32: 95.3; 501mel: 89.3
- SNS-314 + GW9662 : COLO 800: 85.5; COLO 829: 62.5; A101D: 99.6; A375: 82.3; C32: 89.3; 501mel: 112
- etoposide + ENMD-2076 : COLO 800: 79.8; COLO 829: 82.7; A101D: 114; A375: 86.5; C32: 84.7
- etoposide + SNS-314 : COLO 800: 40.3; COLO 829: 66.1; A101D: 71.4; A375: 88.3; C32: 73.9
- AZD7762 + etoposide : COLO 800: 94.4; COLO 829: 113; A101D: 75.2; A375: 42.9; C32: 91.5
- A-769662 + midostaurin : COLO 800: 70.0; COLO 829: 103; A101D: 94.4; A375: 100; C32: 88.9; 501mel: 124
- GW9662 + midostaurin : COLO 800: 101; COLO 829: 105; A101D: 91.5; A375: 93.9; C32: 94.0; 501mel: 115
- AZD7762 + nutlin-3 : COLO 800: 103; COLO 829: 96.5; A101D: 75.7; A375: 53.7; C32: 80.6
- midostaurin + etoposide : COLO 800: 149; COLO 829: 85.6; A101D: 87.5; A375: 101; C32: 93.9
- nutlin-3 + midostaurin : COLO 800: 98.0; COLO 829: 79.4; A101D: 79.5; A375: 73.4; C32: 73.3
- midostaurin + embelin : COLO 800: 105; COLO 829: 90.9; A101D: 78.4; A375: 115; C32: 105; 501mel: 116
- etoposide + GSK0660 : COLO 800: 111; COLO 829: 86.9; A101D: 108; C32: 87.4
- ENMD-2076 + SNS-314 : COLO 800: 70.8; COLO 829: 77.7; A101D: 91.2; A375: 116; C32: 92.9
- nutlin-3 + GSK0660 : COLO 800: 89.4; COLO 829: 70.1; A101D: 90.0; C32: 86.5; 501mel: 89.0
- SNS-314 + nutlin-3 : COLO 800: 58.8; COLO 829: 93.4; A101D: 81.2; A375: 90.9; C32: 71.5
- ENMD-2076 + GW9662 : COLO 800: 59.5; COLO 829: 95.7; A101D: 91.5; C32: 86.4; 501mel: 74.8
- A-769662 + SNS-314 : COLO 800: 82.8; COLO 829: 100; A101D: 101; A375: 107; C32: 89.1; 501mel: 110
- nutlin-3 + embelin : COLO 800: 76.0; COLO 829: 133; A101D: 114; C32: 112
- ENMD-2076 + embelin : COLO 800: 97.9; COLO 829: 99.4; A101D: 113; C32: 106; 501mel: 100
- A-769662 + AZD7762 : COLO 800: 64.8; COLO 829: 104; A101D: 87.9; A375: 55.8; C32: 88.0
- etoposide + A-769662 : COLO 800: 86.7; COLO 829: 112; A101D: 88.1; C32: 95.9; 501mel: 89.4
- GSK0660 + AZD7762 : COLO 800: 87.7; COLO 829: 101; A101D: 97.7; A375: 73.8; C32: 114; 501mel: 88.9

For reference, 3 entries once more:

{"combination": "SNS-314 + nutlin-3", "COLO 800": 58.8, "COLO 829": 93.4, "A101D": 81.2, "A375": 90.9, "C32": 71.5}
{"combination": "etoposide + embelin", "COLO 800": 99.9, "COLO 829": 98.5, "A101D": 93.9, "C32": 88.7, "501mel": 95.5}
{"combination": "A-769662 + SNS-314", "COLO 800": 82.8, "COLO 829": 100, "A101D": 101, "A375": 107, "C32": 89.1, "501mel": 110}